According to paper PMC5674072:
No constants are given. Whether binding was seen depends on the method and setting. Binding seen in cells or lysates may run through a third protein. Some results given as binding are weak or reduced against the parent protein; the word gives no strength. Sequences can lack the tags named with a protein.

Chains of the proteins cited; added tags and fusions are not shown.
UniProt Q9Z1N5: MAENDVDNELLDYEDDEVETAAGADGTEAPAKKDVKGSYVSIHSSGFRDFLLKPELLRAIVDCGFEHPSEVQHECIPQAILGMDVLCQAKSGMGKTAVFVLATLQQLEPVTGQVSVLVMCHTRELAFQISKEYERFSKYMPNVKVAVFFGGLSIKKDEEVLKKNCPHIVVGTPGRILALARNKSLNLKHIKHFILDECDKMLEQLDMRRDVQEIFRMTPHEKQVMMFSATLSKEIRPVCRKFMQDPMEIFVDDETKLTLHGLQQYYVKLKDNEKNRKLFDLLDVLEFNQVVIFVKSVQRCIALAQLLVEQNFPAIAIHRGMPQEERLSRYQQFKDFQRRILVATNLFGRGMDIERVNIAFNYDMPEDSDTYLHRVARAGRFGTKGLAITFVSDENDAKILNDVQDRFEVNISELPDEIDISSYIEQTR

Tests used:
[1] = target: T1, 3x Flag Matrin 3 wild-type (human) (human) (UniProt P43243); experiment: co-IP; Flag M2 affinity gel on nuclear fractions (400 µg total protein) of NSC-34 cells stably expressing 3x Flag Matrin 3; western blot for Aly, Ddx39b, Sarnp
T1 sequence: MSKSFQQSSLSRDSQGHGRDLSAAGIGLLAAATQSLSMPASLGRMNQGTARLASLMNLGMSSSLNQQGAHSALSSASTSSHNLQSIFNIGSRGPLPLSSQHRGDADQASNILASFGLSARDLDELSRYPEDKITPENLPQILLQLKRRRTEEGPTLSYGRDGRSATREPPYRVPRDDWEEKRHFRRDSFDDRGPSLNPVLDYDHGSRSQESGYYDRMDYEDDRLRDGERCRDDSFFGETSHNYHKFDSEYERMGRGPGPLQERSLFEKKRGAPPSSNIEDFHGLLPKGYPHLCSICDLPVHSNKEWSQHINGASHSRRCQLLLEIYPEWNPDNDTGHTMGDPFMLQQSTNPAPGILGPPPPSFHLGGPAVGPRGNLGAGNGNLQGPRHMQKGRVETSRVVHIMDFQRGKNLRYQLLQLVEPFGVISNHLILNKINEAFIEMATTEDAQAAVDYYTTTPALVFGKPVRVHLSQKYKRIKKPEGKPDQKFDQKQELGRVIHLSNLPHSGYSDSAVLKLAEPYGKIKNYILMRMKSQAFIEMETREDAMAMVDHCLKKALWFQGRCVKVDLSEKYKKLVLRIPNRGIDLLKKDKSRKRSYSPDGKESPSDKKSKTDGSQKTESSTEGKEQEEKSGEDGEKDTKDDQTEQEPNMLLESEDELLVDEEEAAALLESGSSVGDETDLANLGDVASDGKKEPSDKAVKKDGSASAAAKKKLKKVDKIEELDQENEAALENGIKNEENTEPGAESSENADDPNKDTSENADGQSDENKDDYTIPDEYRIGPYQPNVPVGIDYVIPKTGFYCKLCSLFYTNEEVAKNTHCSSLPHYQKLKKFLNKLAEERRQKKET

[2] = target: Ddx39b (UAP56) of NSC-34 cells (mouse (endogenous in NSC-34)) (UniProt Q9Z1N5); experiment: co-IP; reverse IP: antibodies against Aly or Ddx39b on nuclear fractions of NSC-34 cells stably expressing 3x Flag Matrin 3 wild-type or mutant; western blot for Flag, quantified as Flag signal over bait signal

| Binder | binding [1] | binding [2] |
| --- | --- | --- |
| Sarnp (Cip29) of NSC-34 cells (protein, UniProt Q9D1J3 1-210) MAAETVELHKLKLAELKQECLARGLETKGIKQDLINRLQAYLEDHAEEEANEEDVLGDETEEEEPKPIELPVKEEEPPEKAVDMASEKKVVKITSGIPQTERMQKRAERFNVPVSLESKKAARAARFGISSVPTKGLSSDTKPMVNLDKLKERAQRFGLNVSSISRKSEDDEKLKKRKERFGIVTSSAGTGTTEDTEAKKRKRAERFGIA | binds | – |
| 3x Flag Matrin 3 wild-type (human) (protein, UniProt P43243 1-847) MSKSFQQSSLSRDSQGHGRDLSAAGIGLLAAATQSLSMPASLGRMNQGTARLASLMNLGMSSSLNQQGAHSALSSASTSSHNLQSIFNIGSRGPLPLSSQHRGDADQASNILASFGLSARDLDELSRYPEDKITPENLPQILLQLKRRRTEEGPTLSYGRDGRSATREPPYRVPRDDWEEKRHFRRDSFDDRGPSLNPVLDYDHGSRSQESGYYDRMDYEDDRLRDGERCRDDSFFGETSHNYHKFDSEYERMGRGPGPLQERSLFEKKRGAPPSSNIEDFHGLLPKGYPHLCSICDLPVHSNKEWSQHINGASHSRRCQLLLEIYPEWNPDNDTGHTMGDPFMLQQSTNPAPGILGPPPPSFHLGGPAVGPRGNLGAGNGNLQGPRHMQKGRVETSRVVHIMDFQRGKNLRYQLLQLVEPFGVISNHLILNKINEAFIEMATTEDAQAAVDYYTTTPALVFGKPVRVHLSQKYKRIKKPEGKPDQKFDQKQELGRVIHLSNLPHSGYSDSAVLKLAEPYGKIKNYILMRMKSQAFIEMETREDAMAMVDHCLKKALWFQGRCVKVDLSEKYKKLVLRIPNRGIDLLKKDKSRKRSYSPDGKESPSDKKSKTDGSQKTESSTEGKEQEEKSGEDGEKDTKDDQTEQEPNMLLESEDELLVDEEEAAALLESGSSVGDETDLANLGDVASDGKKEPSDKAVKKDGSASAAAKKKLKKVDKIEELDQENEAALENGIKNEENTEPGAESSENADDPNKDTSENADGQSDENKDDYTIPDEYRIGPYQPNVPVGIDYVIPKTGFYCKLCSLFYTNEEVAKNTHCSSLPHYQKLKKFLNKLAEERRQKKET | – | binds |
| 3x Flag Matrin 3 S85C (human) (protein, UniProt P43243 1-847) MSKSFQQSSLSRDSQGHGRDLSAAGIGLLAAATQSLSMPASLGRMNQGTARLASLMNLGMSSSLNQQGAHSALSSASTSSHNLQCIFNIGSRGPLPLSSQHRGDADQASNILASFGLSARDLDELSRYPEDKITPENLPQILLQLKRRRTEEGPTLSYGRDGRSATREPPYRVPRDDWEEKRHFRRDSFDDRGPSLNPVLDYDHGSRSQESGYYDRMDYEDDRLRDGERCRDDSFFGETSHNYHKFDSEYERMGRGPGPLQERSLFEKKRGAPPSSNIEDFHGLLPKGYPHLCSICDLPVHSNKEWSQHINGASHSRRCQLLLEIYPEWNPDNDTGHTMGDPFMLQQSTNPAPGILGPPPPSFHLGGPAVGPRGNLGAGNGNLQGPRHMQKGRVETSRVVHIMDFQRGKNLRYQLLQLVEPFGVISNHLILNKINEAFIEMATTEDAQAAVDYYTTTPALVFGKPVRVHLSQKYKRIKKPEGKPDQKFDQKQELGRVIHLSNLPHSGYSDSAVLKLAEPYGKIKNYILMRMKSQAFIEMETREDAMAMVDHCLKKALWFQGRCVKVDLSEKYKKLVLRIPNRGIDLLKKDKSRKRSYSPDGKESPSDKKSKTDGSQKTESSTEGKEQEEKSGEDGEKDTKDDQTEQEPNMLLESEDELLVDEEEAAALLESGSSVGDETDLANLGDVASDGKKEPSDKAVKKDGSASAAAKKKLKKVDKIEELDQENEAALENGIKNEENTEPGAESSENADDPNKDTSENADGQSDENKDDYTIPDEYRIGPYQPNVPVGIDYVIPKTGFYCKLCSLFYTNEEVAKNTHCSSLPHYQKLKKFLNKLAEERRQKKET | – | binds |
| 3x Flag Matrin 3 P154S (human) (protein, UniProt P43243 1-847) MSKSFQQSSLSRDSQGHGRDLSAAGIGLLAAATQSLSMPASLGRMNQGTARLASLMNLGMSSSLNQQGAHSALSSASTSSHNLQSIFNIGSRGPLPLSSQHRGDADQASNILASFGLSARDLDELSRYPEDKITPENLPQILLQLKRRRTEEGSTLSYGRDGRSATREPPYRVPRDDWEEKRHFRRDSFDDRGPSLNPVLDYDHGSRSQESGYYDRMDYEDDRLRDGERCRDDSFFGETSHNYHKFDSEYERMGRGPGPLQERSLFEKKRGAPPSSNIEDFHGLLPKGYPHLCSICDLPVHSNKEWSQHINGASHSRRCQLLLEIYPEWNPDNDTGHTMGDPFMLQQSTNPAPGILGPPPPSFHLGGPAVGPRGNLGAGNGNLQGPRHMQKGRVETSRVVHIMDFQRGKNLRYQLLQLVEPFGVISNHLILNKINEAFIEMATTEDAQAAVDYYTTTPALVFGKPVRVHLSQKYKRIKKPEGKPDQKFDQKQELGRVIHLSNLPHSGYSDSAVLKLAEPYGKIKNYILMRMKSQAFIEMETREDAMAMVDHCLKKALWFQGRCVKVDLSEKYKKLVLRIPNRGIDLLKKDKSRKRSYSPDGKESPSDKKSKTDGSQKTESSTEGKEQEEKSGEDGEKDTKDDQTEQEPNMLLESEDELLVDEEEAAALLESGSSVGDETDLANLGDVASDGKKEPSDKAVKKDGSASAAAKKKLKKVDKIEELDQENEAALENGIKNEENTEPGAESSENADDPNKDTSENADGQSDENKDDYTIPDEYRIGPYQPNVPVGIDYVIPKTGFYCKLCSLFYTNEEVAKNTHCSSLPHYQKLKKFLNKLAEERRQKKET | – | binds |
| 3x Flag Matrin 3 F115C (human) (protein, UniProt P43243 1-847) MSKSFQQSSLSRDSQGHGRDLSAAGIGLLAAATQSLSMPASLGRMNQGTARLASLMNLGMSSSLNQQGAHSALSSASTSSHNLQSIFNIGSRGPLPLSSQHRGDADQASNILASCGLSARDLDELSRYPEDKITPENLPQILLQLKRRRTEEGPTLSYGRDGRSATREPPYRVPRDDWEEKRHFRRDSFDDRGPSLNPVLDYDHGSRSQESGYYDRMDYEDDRLRDGERCRDDSFFGETSHNYHKFDSEYERMGRGPGPLQERSLFEKKRGAPPSSNIEDFHGLLPKGYPHLCSICDLPVHSNKEWSQHINGASHSRRCQLLLEIYPEWNPDNDTGHTMGDPFMLQQSTNPAPGILGPPPPSFHLGGPAVGPRGNLGAGNGNLQGPRHMQKGRVETSRVVHIMDFQRGKNLRYQLLQLVEPFGVISNHLILNKINEAFIEMATTEDAQAAVDYYTTTPALVFGKPVRVHLSQKYKRIKKPEGKPDQKFDQKQELGRVIHLSNLPHSGYSDSAVLKLAEPYGKIKNYILMRMKSQAFIEMETREDAMAMVDHCLKKALWFQGRCVKVDLSEKYKKLVLRIPNRGIDLLKKDKSRKRSYSPDGKESPSDKKSKTDGSQKTESSTEGKEQEEKSGEDGEKDTKDDQTEQEPNMLLESEDELLVDEEEAAALLESGSSVGDETDLANLGDVASDGKKEPSDKAVKKDGSASAAAKKKLKKVDKIEELDQENEAALENGIKNEENTEPGAESSENADDPNKDTSENADGQSDENKDDYTIPDEYRIGPYQPNVPVGIDYVIPKTGFYCKLCSLFYTNEEVAKNTHCSSLPHYQKLKKFLNKLAEERRQKKET | – | binds |
| 3x Flag Matrin 3 T622A (human) (protein, UniProt P43243 1-847) MSKSFQQSSLSRDSQGHGRDLSAAGIGLLAAATQSLSMPASLGRMNQGTARLASLMNLGMSSSLNQQGAHSALSSASTSSHNLQSIFNIGSRGPLPLSSQHRGDADQASNILASFGLSARDLDELSRYPEDKITPENLPQILLQLKRRRTEEGPTLSYGRDGRSATREPPYRVPRDDWEEKRHFRRDSFDDRGPSLNPVLDYDHGSRSQESGYYDRMDYEDDRLRDGERCRDDSFFGETSHNYHKFDSEYERMGRGPGPLQERSLFEKKRGAPPSSNIEDFHGLLPKGYPHLCSICDLPVHSNKEWSQHINGASHSRRCQLLLEIYPEWNPDNDTGHTMGDPFMLQQSTNPAPGILGPPPPSFHLGGPAVGPRGNLGAGNGNLQGPRHMQKGRVETSRVVHIMDFQRGKNLRYQLLQLVEPFGVISNHLILNKINEAFIEMATTEDAQAAVDYYTTTPALVFGKPVRVHLSQKYKRIKKPEGKPDQKFDQKQELGRVIHLSNLPHSGYSDSAVLKLAEPYGKIKNYILMRMKSQAFIEMETREDAMAMVDHCLKKALWFQGRCVKVDLSEKYKKLVLRIPNRGIDLLKKDKSRKRSYSPDGKESPSDKKSKTDGSQKTESSAEGKEQEEKSGEDGEKDTKDDQTEQEPNMLLESEDELLVDEEEAAALLESGSSVGDETDLANLGDVASDGKKEPSDKAVKKDGSASAAAKKKLKKVDKIEELDQENEAALENGIKNEENTEPGAESSENADDPNKDTSENADGQSDENKDDYTIPDEYRIGPYQPNVPVGIDYVIPKTGFYCKLCSLFYTNEEVAKNTHCSSLPHYQKLKKFLNKLAEERRQKKET | – | binds |
